Data as given in the supplement of paper PMC6411743.
± gives the standard deviation of the averaged measurements. Only a part is listed here, and it is no random draw.

Key:
Assay in all cases: NP40-soluble protein abundance relative to vehicle (solubility fold change) (ratio); higher = more soluble protein in presence of AMP-PNP
ARHGAP1 = target: T1, ARHGAP1 (UniProt Q07960)
T1 sequence (whole entry): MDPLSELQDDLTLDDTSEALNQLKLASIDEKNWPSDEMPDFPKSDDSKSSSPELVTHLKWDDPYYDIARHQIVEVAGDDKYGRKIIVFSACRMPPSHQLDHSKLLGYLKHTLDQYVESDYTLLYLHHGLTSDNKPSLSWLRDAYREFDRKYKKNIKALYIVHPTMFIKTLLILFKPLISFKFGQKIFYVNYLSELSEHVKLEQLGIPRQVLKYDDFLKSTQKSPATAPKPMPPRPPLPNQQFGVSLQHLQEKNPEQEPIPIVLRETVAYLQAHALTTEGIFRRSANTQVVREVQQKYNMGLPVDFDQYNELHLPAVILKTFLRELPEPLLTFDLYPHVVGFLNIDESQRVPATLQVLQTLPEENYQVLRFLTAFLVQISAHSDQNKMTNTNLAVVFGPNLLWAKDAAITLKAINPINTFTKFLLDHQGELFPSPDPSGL
Summary of the method: (§1)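 Crude Jurkat lysate, prepared by Dounce homogenisation, was exposed to eight concentrations from 0.1 to 10 mM for 10 min at room temperature and then 3 min at 37 °C. Solubilisation used 0.8% NP40 with benzonase for 60 min at 4 °C, followed by ultracentrifugation and TMT labelling of the supernatant for LC-MS/MS. After vsn normalisation of intensities, each value is the fold change against the detergent-processed vehicle within each replicate, across three independent experiments.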

DR1 = target: T2, DR1 (UniProt Q01658)
T2 sequence (whole entry): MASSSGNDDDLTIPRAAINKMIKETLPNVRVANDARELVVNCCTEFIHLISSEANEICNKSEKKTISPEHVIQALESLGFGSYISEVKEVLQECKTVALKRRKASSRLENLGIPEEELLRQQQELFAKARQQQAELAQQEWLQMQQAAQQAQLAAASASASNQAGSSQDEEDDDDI
Summary of the method: as §1

EIF4G2 = target: T3, EIF4G2 (UniProt P78344)
T3 sequence (whole entry): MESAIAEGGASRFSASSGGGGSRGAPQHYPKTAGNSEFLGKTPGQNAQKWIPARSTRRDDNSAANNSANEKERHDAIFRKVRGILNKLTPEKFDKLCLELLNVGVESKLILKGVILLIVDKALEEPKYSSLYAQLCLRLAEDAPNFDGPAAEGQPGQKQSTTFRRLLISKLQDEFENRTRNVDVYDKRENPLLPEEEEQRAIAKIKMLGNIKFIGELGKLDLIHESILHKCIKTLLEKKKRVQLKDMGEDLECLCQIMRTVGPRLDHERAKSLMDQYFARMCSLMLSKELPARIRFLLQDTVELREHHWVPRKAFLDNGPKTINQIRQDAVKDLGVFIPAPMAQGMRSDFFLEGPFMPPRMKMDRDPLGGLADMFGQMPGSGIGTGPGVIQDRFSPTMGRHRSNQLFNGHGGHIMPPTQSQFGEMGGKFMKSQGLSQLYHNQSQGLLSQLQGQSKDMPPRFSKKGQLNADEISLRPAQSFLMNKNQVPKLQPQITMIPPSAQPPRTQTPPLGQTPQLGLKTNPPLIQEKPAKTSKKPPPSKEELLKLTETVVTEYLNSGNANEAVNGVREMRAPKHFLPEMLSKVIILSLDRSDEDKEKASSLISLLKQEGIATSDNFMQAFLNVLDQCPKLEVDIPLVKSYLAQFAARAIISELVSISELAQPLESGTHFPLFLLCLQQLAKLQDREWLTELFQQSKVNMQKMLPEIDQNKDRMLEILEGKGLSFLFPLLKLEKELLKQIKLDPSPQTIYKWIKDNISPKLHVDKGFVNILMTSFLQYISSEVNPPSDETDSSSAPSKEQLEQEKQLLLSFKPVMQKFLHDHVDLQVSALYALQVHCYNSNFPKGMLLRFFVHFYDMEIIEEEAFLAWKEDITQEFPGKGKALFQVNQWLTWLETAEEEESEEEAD
Summary of the method: as §1

PURA = target: T4, PURA (UniProt Q00577)
T4 sequence (whole entry): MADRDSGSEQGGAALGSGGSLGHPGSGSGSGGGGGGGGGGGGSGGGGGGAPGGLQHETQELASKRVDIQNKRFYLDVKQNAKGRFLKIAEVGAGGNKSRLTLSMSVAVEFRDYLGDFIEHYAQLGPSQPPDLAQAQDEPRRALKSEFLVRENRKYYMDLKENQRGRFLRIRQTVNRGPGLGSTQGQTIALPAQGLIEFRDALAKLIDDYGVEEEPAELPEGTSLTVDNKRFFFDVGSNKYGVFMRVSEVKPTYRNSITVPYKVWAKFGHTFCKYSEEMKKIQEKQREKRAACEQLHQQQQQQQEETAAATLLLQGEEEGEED
Summary of the method: as §1

[1] = target: T5, UniProt Q01804 and related entries
T5 sequence (whole entry): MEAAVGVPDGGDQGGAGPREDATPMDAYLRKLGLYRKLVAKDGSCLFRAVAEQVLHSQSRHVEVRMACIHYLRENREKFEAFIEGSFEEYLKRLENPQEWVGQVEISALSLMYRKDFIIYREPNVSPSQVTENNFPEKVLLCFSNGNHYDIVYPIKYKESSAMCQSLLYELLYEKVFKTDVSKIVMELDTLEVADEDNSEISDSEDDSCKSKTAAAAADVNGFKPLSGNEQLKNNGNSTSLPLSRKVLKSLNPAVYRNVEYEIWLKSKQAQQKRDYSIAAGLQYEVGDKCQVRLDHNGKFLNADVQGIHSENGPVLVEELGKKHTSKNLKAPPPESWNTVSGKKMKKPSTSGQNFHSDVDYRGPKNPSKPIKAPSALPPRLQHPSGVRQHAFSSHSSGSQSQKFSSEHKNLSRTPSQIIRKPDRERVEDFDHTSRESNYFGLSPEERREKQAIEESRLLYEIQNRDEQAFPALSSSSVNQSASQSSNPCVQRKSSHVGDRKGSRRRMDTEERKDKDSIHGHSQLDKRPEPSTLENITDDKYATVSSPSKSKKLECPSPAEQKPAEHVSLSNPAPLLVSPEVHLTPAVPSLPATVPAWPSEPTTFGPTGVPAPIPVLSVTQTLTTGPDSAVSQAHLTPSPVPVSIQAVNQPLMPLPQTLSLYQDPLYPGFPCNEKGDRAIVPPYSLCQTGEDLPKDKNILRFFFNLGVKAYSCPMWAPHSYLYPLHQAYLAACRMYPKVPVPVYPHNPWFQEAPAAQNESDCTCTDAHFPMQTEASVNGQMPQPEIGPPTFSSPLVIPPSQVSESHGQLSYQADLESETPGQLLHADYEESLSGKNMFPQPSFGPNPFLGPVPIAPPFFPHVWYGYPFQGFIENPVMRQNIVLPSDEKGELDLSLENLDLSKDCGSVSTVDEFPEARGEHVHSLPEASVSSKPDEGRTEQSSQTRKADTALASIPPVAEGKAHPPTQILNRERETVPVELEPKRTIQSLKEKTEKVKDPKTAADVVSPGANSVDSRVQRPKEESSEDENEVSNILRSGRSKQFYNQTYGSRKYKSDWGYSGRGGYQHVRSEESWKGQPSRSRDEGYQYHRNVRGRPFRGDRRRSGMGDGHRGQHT
Summary of the method: as §1

UniProt Q02040 = target: T6, UniProt Q02040
T6 sequence (whole entry): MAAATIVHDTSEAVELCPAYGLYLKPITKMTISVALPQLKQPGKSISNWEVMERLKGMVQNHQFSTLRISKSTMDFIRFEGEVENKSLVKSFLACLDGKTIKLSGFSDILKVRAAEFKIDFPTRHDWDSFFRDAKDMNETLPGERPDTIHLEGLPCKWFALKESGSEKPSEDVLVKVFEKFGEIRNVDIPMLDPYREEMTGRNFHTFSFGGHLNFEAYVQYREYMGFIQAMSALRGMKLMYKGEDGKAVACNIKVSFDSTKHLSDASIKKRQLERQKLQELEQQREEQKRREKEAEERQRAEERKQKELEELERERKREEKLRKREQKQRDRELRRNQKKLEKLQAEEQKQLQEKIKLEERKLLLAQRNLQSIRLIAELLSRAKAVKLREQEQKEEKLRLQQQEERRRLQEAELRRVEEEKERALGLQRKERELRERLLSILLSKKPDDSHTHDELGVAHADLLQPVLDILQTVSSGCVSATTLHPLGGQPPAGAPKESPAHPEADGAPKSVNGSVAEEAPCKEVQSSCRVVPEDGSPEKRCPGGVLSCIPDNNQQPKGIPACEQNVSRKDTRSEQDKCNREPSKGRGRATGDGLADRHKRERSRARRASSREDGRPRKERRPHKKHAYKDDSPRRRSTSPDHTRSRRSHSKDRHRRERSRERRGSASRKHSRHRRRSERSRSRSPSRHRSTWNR
Summary of the method: as §1

## Nc1ncnc2c1ncn2[C@@H]1O[C@H](COP(=O)(O)OP(=O)(O)NP(=O)(O)O)[C@@H](O)[C@H]1O [adenylyl imidodiphosphate]
ARHGAP1; concentration: 1mM
  NP40-soluble protein abundance: 0.969 ± 0.027
ARHGAP1; concentration: 2mM
  NP40-soluble protein abundance: 0.973 ± 0.021
ARHGAP1; concentration: 4mM
  NP40-soluble protein abundance: 0.939 ± 0.043
ARHGAP1; concentration: 6mM
  NP40-soluble protein abundance: 0.919 ± 0.013
ARHGAP1; concentration: 8mM
  NP40-soluble protein abundance: 0.885 ± 0.04
ARHGAP1; concentration: 10mM
  NP40-soluble protein abundance: 0.917 ± 0.034
DR1; concentration: 1mM
  NP40-soluble protein abundance: 0.95 ± 0.042
DR1; concentration: 2mM
  NP40-soluble protein abundance: 0.965 ± 0.052
DR1; concentration: 4mM
  NP40-soluble protein abundance: 0.904 ± 0.059
DR1; concentration: 6mM
  NP40-soluble protein abundance: 0.846 ± 0.014
DR1; concentration: 8mM
  NP40-soluble protein abundance: 0.815 ± 0.042
DR1; concentration: 10mM
  NP40-soluble protein abundance: 0.827 ± 0.091
EIF4G2; concentration: 1mM
  NP40-soluble protein abundance: 1.03 ± 0.015
EIF4G2; concentration: 2mM
  NP40-soluble protein abundance: 1.07 ± 0.043
EIF4G2; concentration: 4mM
  NP40-soluble protein abundance: 1.06 ± 0.0056
EIF4G2; concentration: 6mM
  NP40-soluble protein abundance: 1.12 ± 0.03
EIF4G2; concentration: 8mM
  NP40-soluble protein abundance: 1.11 ± 0.04
EIF4G2; concentration: 10mM
  NP40-soluble protein abundance: 1.14 ± 0.074
PURA; concentration: 1mM
  NP40-soluble protein abundance: 0.98 ± 0.051
PURA; concentration: 2mM
  NP40-soluble protein abundance: 0.976 ± 0.1
PURA; concentration: 4mM
  NP40-soluble protein abundance: 0.979 ± 0.062
PURA; concentration: 6mM
  NP40-soluble protein abundance: 1.08 ± 0.14
PURA; concentration: 8mM
  NP40-soluble protein abundance: 1.05 ± 0.098
PURA; concentration: 10mM
  NP40-soluble protein abundance: 1.11 ± 0.044
[1]; concentration: 1mM
  NP40-soluble protein abundance: 1.01 ± 0.016
[1]; concentration: 2mM
  NP40-soluble protein abundance: 1.05 ± 0.045
[1]; concentration: 4mM
  NP40-soluble protein abundance: 1.063 ± 0.0053
[1]; concentration: 6mM
  NP40-soluble protein abundance: 1.01 ± 0.03
[1]; concentration: 8mM
  NP40-soluble protein abundance: 0.995 ± 0.032
[1]; concentration: 10mM
  NP40-soluble protein abundance: 1.03 ± 0.049
UniProt Q02040; concentration: 1mM
  NP40-soluble protein abundance: 1.04 ± 0.03
UniProt Q02040; concentration: 2mM
  NP40-soluble protein abundance: 1.03 ± 0.034
UniProt Q02040; concentration: 4mM
  NP40-soluble protein abundance: 1.04 ± 0.056
UniProt Q02040; concentration: 6mM
  NP40-soluble protein abundance: 1.1 ± 0.035
UniProt Q02040; concentration: 8mM
  NP40-soluble protein abundance: 1.1 ± 0.035
UniProt Q02040; concentration: 10mM
  NP40-soluble protein abundance: 1.09 ± 0.031
